Results from publication PMC6016484.
These are yes or no findings as the source states them, for the method shown. In cells and extracts the contact can be indirect.

Biological target: T1, endogenous ARL11 in primary mouse BMDMs (mouse (endogenous in BMDMs)) (UniProt Q6P3A9)
T1 sequence: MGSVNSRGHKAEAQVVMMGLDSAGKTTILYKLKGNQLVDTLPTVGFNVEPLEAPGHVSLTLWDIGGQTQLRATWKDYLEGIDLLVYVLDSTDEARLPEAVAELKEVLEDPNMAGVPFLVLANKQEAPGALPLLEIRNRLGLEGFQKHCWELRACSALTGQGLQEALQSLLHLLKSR
Assay: co-IP; control or LPS-treated primary BMDMs; lysates precipitated with anti-ARL11 antibody or anti-IgG control antibody; immunoblot for endogenous MAPKs and phospho-ERK1/2

**Q.** With endogenous p38 in primary mouse BMDMs as the substance, how does the binding read?
**A.** no binding
